The list shows a part of the results. At the low end of the ranking the order means little.

This test concerns the target T1, PUM1 PUF domain R1-QFR R2-VFQ R7-NPG S863Q + R864F + Q867R + N899V + Y900F + S1079N + N1080P + E1083G (UniProt Q14671).
T1 sequence: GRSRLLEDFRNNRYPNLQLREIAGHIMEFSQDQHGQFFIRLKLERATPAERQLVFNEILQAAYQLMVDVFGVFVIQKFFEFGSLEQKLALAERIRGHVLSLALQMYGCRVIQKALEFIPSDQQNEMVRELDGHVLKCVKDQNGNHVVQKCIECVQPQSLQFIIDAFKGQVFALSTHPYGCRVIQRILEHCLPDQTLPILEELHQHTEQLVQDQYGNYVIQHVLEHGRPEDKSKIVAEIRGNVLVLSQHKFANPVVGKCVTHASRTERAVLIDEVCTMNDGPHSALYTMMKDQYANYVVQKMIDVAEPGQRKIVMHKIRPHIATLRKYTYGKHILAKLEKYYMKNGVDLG
The following applies: yeast three-hybrid, YBZ-1, SC-Leu-His + 0.5 mM 3-AT, 4 days.
As for “GGCUAGAACUAGUGGAUCCCCCGGCGCCCGGCGGCUCGAGCCCGGGUAAGUUGAAAUCGUCUGCAUGCCGCCGGGCGCCAUGCCUGCAGGUCGACUCUAGAAAACAUG”, the binding signal (log2 enrichment (interaction score)) is -5.61.
The same measure for “GGCUAGAACUAGUGGAUCCCCCGGCGCCCGGCGGCUCGAGCCCGGGUAAGAUUGAGUCGUCUGCAUGCCGCCGGGCGCCAUGCCUGCAGGUCGACUCUAGAAAACAUG”: -5.67.
The same measure for “GGCUAGAACUAGUGGAUCCCCCGGCGCCCGGCGGCUCGAGCCCGGGUAAGUUGACACCGUCUGCAUGCCGCCGGGCGCCAUGCCUGCAGGUCGACUCUAGAAAACAUG”: -5.01.
The same measure for “GGCUAGAACUAGUGGAUCCCCCGGCGCCCGGCGGCUCGAGCCCGGGUAAGUGCUCAGGGUCUGCAUGCCGCCGGGCGCCAUGCCUGCAGGUCGACUCUAGAAAACAUG”: -4.44; for “GGCUAGAACUAGUGGAUCCCCCGGCGCCCGGCGGCUCGAGCCCGGGUAAGUUAAGGAGGUCUGCAUGCCGCCGGGCGCCAUGCCUGCAGGUCGACUCUAGAAAACAUG”: -5.58.
Consider “GGCUAGAACUAGUGGAUCCCCCGGCGCCCGGCGGCUCGAGCCCGGGUAAGUUCGGGAGGUCUGCAUGCCGCCGGGCGCCAUGCCUGCAGGUCGACUCUAGAAAACAUG”, for which the binding signal (log2 enrichment (interaction score)) was -4.21.
The same measure for “GGCUAGAACUAGUGGAUCCCCCGGCGCCCGGCGGCUCGAGCCCGGGUAAGUUAACUGAGUCUGCAUGCCGCCGGGCGCCAUGCCUGCAGGUCGACUCUAGAAAACAUG”: -5.22; for “GGCUAGAACUAGUGGAUCCCCCGGCGCCCGGCGGCUCGAGCCCGGGUAAGUUGGAGACGUCUGCAUGCCGCCGGGCGCCAUGCCUGCAGGUCGACUCUAGAAAACAUG”: -6.13.

Values taken from article PMC8384837.
